## Library screening results

From ChEMBL document CHEMBL3988442, “University of Dundee, Small-Polar-MMV Screening Library” (2021).

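Whole-cell assay for inhibitors of Mycobacterium tuberculosis growth, labelled Cornell in the record; the read-out is not stated. The concentration is filed as 10 mM, unlikely as a test dose, so the dose is not known. Higher means stronger inhibition (inferred from two other growth screens of the library). About 53,000 compounds were tested under these conditions; 1.7% (about 900) showed 50% or more at least once.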

Results are given as percent effect.
How 0% and 100% were set is not recorded. Most values in the screen are low, and negative values occur.
The compounds are a random part of those screened.

SMILES	percent effect
[H][C@@]12CCN(C(=O)C3CC(F)(F)C3)C[C@]1(COCC1CC1)CCO2	30.04
CC(C)NC(=O)CC(C)NCc1cc(Cl)ccc1F (centres unmarked)	10.22
Cc1ccc(CN2Cc3ccccc3O[C@]3(CC[C@H](CO)CC3)C2)o1.Cl	-61.6
CN1CCN(C(=O)Cc2ccsc2)Cc2cccnc21.O=C(O)C(F)(F)F	-6.454
COCc1ncn2c1CN(S(=O)(=O)c1cccc(F)c1)CC2	-15.56
CCC(=O)N1CCN(C(=O)Nc2cccc(N3CCOCC3)c2)CC1	10.87
NC(=O)CC1CCCN(c2cncc(SCc3ccccc3)n2)C1 (centres unmarked)	23.34
CN(CCCOc1ccc(F)cc1)Cc1nc2c(cnn2C)c(=O)[nH]1	19.77
CCS(=O)(=O)c1ccc2c(c1)N1CCS(=O)(=O)N=C1O2	2.789
N#Cc1ncn(CCS(=O)(=O)c2ccccc2)n1	-28.48
CC1CN(c2ncnc3ccccc23)CCO1 (centres unmarked)	-8.405
Cc1ccc(C)c(OCCNC(=O)C2CCOC2)c1 (centres unmarked)	8.814
[H][C@@]12CCN(Cc3ccncc3)C[C@]1([H])O[C@H](C(=O)N(C)C)C2	8.327
O=c1ccc(-n2ccnc2)nn1CCNS(=O)(=O)c1ccc(Br)cc1	-15.84
CN(Cc1cccnc1)Cc1cncc2c1CCN(c1ccccn1)C2.Cl.Cl.Cl	-8.21
CC(C)[C@H]1CN(Cc2ccncc2)C[C@@H]1NC(=O)C1(C#N)CCOCC1	8.101
C1CCCN(c2nc(C3CC3)no2)CC1	18.98
O=c1cc(N2CCc3ccccc3C2)cnn1CCC1CCOC1 (centres unmarked)	26.79
c1ccc(CN(Cc2cccc3cnccc23)CC2CCCO2)nc1 (centres unmarked)	31.04
O=C(NCCNS(=O)(=O)c1cccc(Cl)c1)C1CCCO1 (centres unmarked)	-27.89
OC1(CN2CCC(Oc3cccc(C(F)(F)F)c3)CC2)CNCCOC1 (centres unmarked)	-9.202
Cc1cn2c(=O)c(-c3ccnc(N(C)C4CCCCC4)n3)cnc2s1	0.1236
NC(=O)C1CCN(CCc2ccc(NCc3cscn3)cc2)CC1	12.28
c1ccc(OCCN2CCC(c3nnc(-c4cccnc4)o3)CC2)cc1	-24.14
NC(=O)NC(CC(=O)NCCc1cccc(F)c1)c1cccs1 (centres unmarked)	25.48
O=C(Nc1cccnc1-n1cc(Cl)cn1)C1CC1	1.508
CN1CCC(N(CCc2ccccc2)C(=O)c2ccc(C#N)cc2)CC1	10.35
[H][C@@]12CCN(C[C@@H]1CN1CCCC1)[C@@H](CNC(=O)c1ccco1)C2	-0.7903
COCc1nc(NC(C)c2c(C)n[nH]c2C)c2cnn(C)c2n1 (centres unmarked)	13.2
c1nc2c(c(N3CCCC(Cn4cncn4)C3)n1)CCC2 (centres unmarked)	13.83
Cc1nn(C)c(C)c1CN(C)c1nc(C2CCCC2)nc2c1cnn2C	-7.131
CCCn1c(C)c(CC(=O)NC(C)CO)c2c1CC(C)(C)CC2=O (centres unmarked)	15.86
CCc1cnc(N2CC3(CCN(S(=O)(=O)C4CC4)C3)C2)nc1	-30.2
CO[C@H]1CN(Cc2nc3ccccc3n2C)C[C@@]12CCCO2	8.857
[H][C@]12CCN(C(=O)COC)[C@@]1([H])CC[C@H](COCc1csc(C)n1)O2	-1.727
CNC(=O)c1ccc(S(=O)(=O)NCCc2ccccn2)cc1	-28.69
Cc1cnn(CC2CN(CC(=O)N(C)Cc3ccccc3)CCO2)c1 (centres unmarked)	12.15
Cc1ccc(NC2CCN(C(=O)CCc3c(C)noc3C)CC2)nn1	45.17
COCCN(C)CC(=O)N1C[C@@H](C)[C@](O)(C(C)C)C1	28.76
CCn1c(CN(C)C)nnc1C1CCN(Cc2cccc(OC)c2)CC1	-37
CN(C)Cc1cnc(C2CCN(C(=O)c3ccc(F)cc3)C2)[nH]1 (centres unmarked)	28.44
COc1ccc(CNC(C)c2cnc3cc(C)nn3c2C)cc1 (centres unmarked)	18.54
CCNC(=O)[C@@H]1C[C@@H](NC(=O)CSC)CN1Cc1ccncc1	16.54
CC1=NC2(CCN(CC(C)c3ccccc3)CC2)C(=O)N1 (centres unmarked)	17.76
CCCc1nc(N2CCC(C)CC2)c2c(n1)c(C)nn2CC	17.45
O=C(O)C(F)(F)F.[H][C@@]12CN(c3cccnc3)CC[C@]1([H])CN(c1nccc(C(F)(F)F)n1)C2	44.14
O=C(O)C(F)(F)F.[H][C@]12CCC[C@@H](CN(C)C3CC3)[C@@]1([H])CN(c1cc(OC)ncn1)C2	9.027
CCN1CCN(C(=O)C(C)N2CCc3cncnc3C2)CC1 (centres unmarked)	7.501
COCC1CN(Cc2cccc(C#N)c2)Cc2nccn2C1 (centres unmarked)	20.06
CC(C)N1CCCC2(CCN(Cc3nncn3C(C)C)C2)C1=O (centres unmarked)	-3.13
Cc1cc(N2CCC(n3cc(CCCO)nn3)CC2)ccn1	1.9
CNc1snc(C)c1C(=O)N1CCCC(n2cc(C)cn2)C1 (centres unmarked)	-17.18
COCCN1CCC(NC(=O)NCC2(c3cccc(F)c3)CC2)C1 (centres unmarked)	1.8
[H][C@]12CCC[C@@H](OCc3cccnc3)[C@]1([H])CN(C(=O)c1ccnnc1)C2	4.595
Cc1cc(=O)[nH]c(=O)n1-c1cccc(Cl)c1Cl	-14.19
Cc1ccc(S(=O)(=O)N2CCC3(CC(C(=O)NCC(C)C)=NO3)C2)cc1 (centres unmarked)	7.698
COc1ccccc1-c1ncc(CN2CCC3(CCNCC3)CC2)cn1	23.71
COc1ccc(COCC(O)CNC(=O)c2cc(C)no2)cc1 (centres unmarked)	-1.073
Cc1cccc(-n2ncc3c(=O)n(CCN4CCCCC4)cnc32)c1C	-11.13
COCC1CN(C(=O)c2ccnnc2)Cc2ncnn2C1 (centres unmarked)	17.03
O=C(O)C(F)(F)F.O=C1CC(c2ccncc2)C2(CCN(C(=O)NC3CC3)CC2)N1 (centres unmarked)	6.652
c1cnc(NCc2n[nH]c3c2CCN(Cc2cccnc2)C3)nc1	32.18
[H][C@]12C[C@H](C(=O)NC)N(C(C)=O)[C@@]1([H])CN(S(=O)(=O)c1ccccc1)C2	-14.92
[H][C@]12CN(Cc3ncccn3)CC[C@@]1(O)CCN(C(=O)C1CCCC1)C2	16.31
Cc1ccc(C)c(C(=O)N2CCC3(CCC(=O)N(CC(N)=O)C3)CC2)c1	-25.91
CC(C)n1ccnc1C1CCN(Cc2ccc(Cl)c(F)c2)CC1	1.285
CN1CC(=O)N(c2ccccc2)CC12CCN(C(=O)c1cccs1)C2.O=C(O)C(F)(F)F (centres unmarked)	-11.64
Cc1ccc(CN2C[C@@H](C(=O)O)[C@H](c3ccccn3)C2)o1	-24.56
O=C(c1cccnc1)N1CCc2c(COCC3CC3)cncc2C1	29.34
COc1cc(OC)cc(-c2noc(C(N)CCSC)n2)c1 (centres unmarked)	12.86
[H][C@]12CC[C@@]3(N=C(c4ccccc4)NC3=O)[C@@]1([H])CN(Cc1ccoc1)C2	-10.52
CCCNc1ccc(C(=O)NCCc2cccc(Cl)c2)cn1	-5.958
O=C(c1ccccc1O)N1CCN(C(=O)C2CCC2)CC1	-29.15
N#CC1(NC(=O)c2ccc(F)cc2OC(F)F)CCOCC1	-1.691
NC(=O)c1csc(N2C[C@@H](CN3CCCCC3)[C@@H](CO)C2)n1	-69.48
CCCNC(=O)CCNC(=O)N1CCC(=Cc2ccccc2)CC1	-1.003
O=C(c1ccc2c(c1)OCO2)N1CCCC(n2cccn2)C1 (centres unmarked)	7.781
Cc1cnc(CC2COCCN(C(=O)c3cncs3)C2)cn1 (centres unmarked)	-12
COc1cc(F)c(NCc2nc3ccccc3n2C)cc1OC	48.58
COc1ccccc1CC(C)N(C)CCS(C)(=O)=O (centres unmarked)	-2.787
NC(=O)NC(=O)C(c1ccccc1)N1CCN(Cc2ccsc2)CC1 (centres unmarked)	-6.219
[H][C@@]12C[C@H](C)O[C@@]1([H])CCN(S(=O)(=O)c1ccc(F)cc1)C2	6.187
CCCN1C[C@H](NC(=O)c2cccs2)[C@@H](c2ccc(OC)cc2)C1	-14.44
NC(=O)CCC(=O)N1CCc2[nH]nc(-c3ccc4c(c3)OCO4)c2C1	6.023
Cc1cc(C(=O)N2CCCC3(CCCN3Cc3cccnc3)C2)[nH]n1 (centres unmarked)	-6.492
Cc1cc(C(=O)N(C)CCN(C)C(=O)OC(C)(C)C)oc1C	-8.303
O=C(O)C(F)(F)F.O=C1CCCN1Cc1nnn2c1CN(c1cccnc1)CCC2	7.436
CC1CCN(S(=O)(=O)N2CCC(Oc3cnccn3)CC2)CC1	-18.23
CCOC(=O)N1CCN(C(=O)c2cc(-c3ccc(Cl)cc3Cl)on2)CC1	11.67
Cc1nnc(N2CCN(C(=O)NC3CC3)CC2)c(C(N)=O)c1C	-40.75
Cc1nc(C(=O)N2CCC3(CC2)CC(=O)N(CC2CCCO2)C3)cs1 (centres unmarked)	-35.13
O=C(O)C(=O)O.c1coc(CN2CCC(c3ccc4c(c3)OCO4)CC2)c1	-0.752
CNC(=O)[C@@H]1C[C@@H](NC(=O)CCCc2cccs2)CN1C1CCOCC1	2.571

Repeated from the top, 10 entries:

With [H][C@@]12CCN(C(=O)C3CC(F)(F)C3)C[C@]1(COCC1CC1)CCO2 the screen gave 30.04%.
With CC(C)NC(=O)CC(C)NCc1cc(Cl)ccc1F (centres unmarked) the screen gave 10.22%.
With Cc1ccc(CN2Cc3ccccc3O[C@]3(CC[C@H](CO)CC3)C2)o1.Cl the screen gave -61.6%.
With CN1CCN(C(=O)Cc2ccsc2)Cc2cccnc21.O=C(O)C(F)(F)F the screen gave -6.454%.
With COCc1ncn2c1CN(S(=O)(=O)c1cccc(F)c1)CC2 the screen gave -15.56%.
With CCC(=O)N1CCN(C(=O)Nc2cccc(N3CCOCC3)c2)CC1 the screen gave 10.87%.
With NC(=O)CC1CCCN(c2cncc(SCc3ccccc3)n2)C1 (centres unmarked) the screen gave 23.34%.
With CN(CCCOc1ccc(F)cc1)Cc1nc2c(cnn2C)c(=O)[nH]1 the screen gave 19.77%.
With CCS(=O)(=O)c1ccc2c(c1)N1CCS(=O)(=O)N=C1O2 the screen gave 2.789%.
With N#Cc1ncn(CCS(=O)(=O)c2ccccc2)n1 the screen gave -28.48%.